Article PMC7685970
Results are given in words; binding and its absence hold for the method and conditions named. In cells and extracts the contact can be indirect. These calls come from enrichment with a bait or labelling near it, and not all partners need be listed.

Amino acid sequences for entries named in this document (tags omitted).
UniProt Q9EQU5: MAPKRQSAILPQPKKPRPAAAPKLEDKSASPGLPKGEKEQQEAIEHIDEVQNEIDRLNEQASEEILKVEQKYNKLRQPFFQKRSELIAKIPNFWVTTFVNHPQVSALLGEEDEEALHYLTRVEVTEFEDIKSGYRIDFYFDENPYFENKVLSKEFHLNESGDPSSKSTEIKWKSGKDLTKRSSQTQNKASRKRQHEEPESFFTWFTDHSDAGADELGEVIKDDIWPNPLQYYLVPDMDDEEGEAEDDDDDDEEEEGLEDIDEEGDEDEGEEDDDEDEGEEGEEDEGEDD
UniProt P63330: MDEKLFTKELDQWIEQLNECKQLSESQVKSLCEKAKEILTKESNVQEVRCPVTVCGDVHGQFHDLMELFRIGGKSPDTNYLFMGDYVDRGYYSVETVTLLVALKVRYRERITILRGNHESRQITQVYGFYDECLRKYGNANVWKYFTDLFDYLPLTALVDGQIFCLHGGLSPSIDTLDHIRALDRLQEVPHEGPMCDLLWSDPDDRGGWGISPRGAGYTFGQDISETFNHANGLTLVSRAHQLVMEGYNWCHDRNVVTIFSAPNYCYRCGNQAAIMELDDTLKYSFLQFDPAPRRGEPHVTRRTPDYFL
UniProt Q61937: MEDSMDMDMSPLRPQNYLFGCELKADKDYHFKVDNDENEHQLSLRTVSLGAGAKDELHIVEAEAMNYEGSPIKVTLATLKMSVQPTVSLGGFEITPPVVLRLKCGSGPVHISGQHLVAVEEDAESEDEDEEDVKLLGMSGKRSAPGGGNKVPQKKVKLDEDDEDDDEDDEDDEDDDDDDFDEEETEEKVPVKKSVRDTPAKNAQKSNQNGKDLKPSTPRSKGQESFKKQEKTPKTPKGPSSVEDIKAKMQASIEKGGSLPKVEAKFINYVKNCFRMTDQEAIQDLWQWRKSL

molecular target: T1, Shwachman–Bodian–Diamond syndrome (SBDS) protein (mouse (endogenous in FDC.P1)) (UniProt P70122); experiment: affinity purification with mass spectrometry; SBDS immunoprecipitates from c-KIT/D816V cells subjected to LC-MS/MS
T1 sequence: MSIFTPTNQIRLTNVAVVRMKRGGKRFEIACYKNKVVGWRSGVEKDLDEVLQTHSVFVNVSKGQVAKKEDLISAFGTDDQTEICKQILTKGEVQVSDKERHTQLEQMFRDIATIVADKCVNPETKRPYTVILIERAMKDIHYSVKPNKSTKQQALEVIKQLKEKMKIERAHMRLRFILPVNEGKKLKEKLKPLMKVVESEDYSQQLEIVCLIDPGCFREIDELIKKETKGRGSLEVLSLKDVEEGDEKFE

Row | binding | Substance
1 | binds | PP2A structural subunit (PP2A-A) (mouse (endogenous in FDC.P1))
2 | binds | SET (from UniProt Q9EQU5 1-289)
3 | binds | catalytic subunit of PP2A, PP2Ac (PPP2CA) (from UniProt P63330 1-309) (enzyme)
4 | binds | nucleophosmin (NPM1) (from UniProt Q61937 1-292)
